For test [1], the target named is endogenous EP2 (prostaglandin E2 receptor EP2) (human (endogenous in primary myometrial cells)) (UniProt P43116). As to the kind of experiment: proximity ligation; Duolink In situ Orange kit Goat/Rabbit; anti-EP2 rabbit (H-75) and anti-OTR goat (N-19) at 1:50; primary myocyte cultures of non-laboring myometrium, before and after OT treatment.
Test [2] addresses Rluc8-tagged EP2 (prostaglandin E2 receptor EP2) (human) (UniProt P43116). Put plainly: FRET or BRET; BRET in living primary human myocytes from term-pregnant myometrium; 1 ug EP2-Rluc and increasing amounts of OTR-Venus (0.01-2 ug) transfected; coelenterazine-h 5 uM. A general note: In BRET a luciferase serves as donor, and the signal depends on an acceptor being close.
For test [3] the target is unchanged. Put plainly: FRET or BRET; BRET in living HEK 293 cells; 1 ug EP2-Rluc and increasing amounts of OTR-Venus (0.01-2 ug) transfected; 48 h after transfection, coelenterazine-h 5 uM, emission at 488 nm and 530 nm.

The chains behind the UniProt entries cited, without tags or fusion partners.
UniProt P43116: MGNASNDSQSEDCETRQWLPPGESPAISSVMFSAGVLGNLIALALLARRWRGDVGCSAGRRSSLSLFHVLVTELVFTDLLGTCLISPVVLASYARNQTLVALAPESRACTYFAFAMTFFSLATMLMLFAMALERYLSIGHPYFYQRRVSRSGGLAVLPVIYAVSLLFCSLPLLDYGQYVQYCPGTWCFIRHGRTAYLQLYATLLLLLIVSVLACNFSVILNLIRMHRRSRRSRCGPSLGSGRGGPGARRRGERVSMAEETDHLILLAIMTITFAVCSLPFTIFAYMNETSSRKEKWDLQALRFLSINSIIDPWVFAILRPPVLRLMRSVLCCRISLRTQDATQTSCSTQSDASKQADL
UniProt P30559: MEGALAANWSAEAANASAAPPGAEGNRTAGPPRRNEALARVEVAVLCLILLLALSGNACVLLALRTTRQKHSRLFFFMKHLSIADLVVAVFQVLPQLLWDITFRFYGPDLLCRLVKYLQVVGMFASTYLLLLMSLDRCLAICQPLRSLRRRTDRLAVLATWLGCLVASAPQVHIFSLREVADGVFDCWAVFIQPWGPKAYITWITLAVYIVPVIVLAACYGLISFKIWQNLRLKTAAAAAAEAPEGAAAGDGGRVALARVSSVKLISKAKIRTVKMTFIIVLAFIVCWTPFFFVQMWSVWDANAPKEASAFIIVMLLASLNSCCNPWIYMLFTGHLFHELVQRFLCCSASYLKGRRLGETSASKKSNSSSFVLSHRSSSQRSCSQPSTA

Results are given in words; binding and its absence hold for the method and conditions named. In cells and extracts the contact can be indirect. Some results given as binding are weak or reduced against the parent protein; the word gives no strength.

Our source for the binding values is paper PMC9638024, “Functional rewiring of G protein-coupled receptor signaling in human labor” (Cell Reports, 2022).

Regarding “endogenous OTR (oxytocin receptor) (from UniProt P30559 1-389)”, in test [1], the binding result is reported as “binds”.

Take “Venus-tagged OTR (oxytocin receptor) (from UniProt P30559 1-389)”: the binding result in test [2] and in test [3] was “binds” throughout.
